Test results reported in patent US20110269721A1, “METHODS OF TREATING THALASSEMIA” (TargeGen, Inc., priority 2008, published 2011).

Tested on: purified erythroid cells isolated from the spleens of normal and thalassemic mice
Assay: Primary splenic erythroid cell cultures with CFSE staining (cell proliferation)
Assay type: cell-based, mouse
Conditions: AG490 100 uM, FIG. 2A
Description: Spleens from […] were harvested and mechanically dissociated into single cell suspensions. Murine mononuclear cells were then isolated by centrifugation using Lympholyte-M density gradients (Cedarlane Laboratories Ltd, Westbury, N.Y.) following the manufacturer's instructions. Cells were incubated on ice for 15 minutes with a cocktail containing 10 μg each of non-erythroid FITCconjugated antibodies (GR-1, MAC1, CD4, CD8, CD11b, and CD49) (BD PharMingen). After washing, the cells were incubated for 15 minutes at 4° C. with anti-FITC microbeads (Miltenyi Biotech, Auburn, Calif.). The cell suspension was placed on a magnetic column and the eluted erythroid cells were kept for RNA extraction, protein analysis, in vitro culture with carboxy-fluorescein diacetate succinimidyl ester (CFSE; MolecularProbes, Eugene, Oreg.) staining or flow cytometric analysis. CFSE was added to the cells to give a final concentration of 1.25 uM. After 10 minutes at 37° C., further dye uptake was prevented by addition of 5 volumes of cold medium and incubated in ice for 5 minutes. […] Thus, it is possible to determine if cells are dividing by monitoring the reduction of CFSE fluorescence (FIG. 2A).

CN[C@H]1CCc2cc(OC)c(OC)c(OC)c2-c2ccc(OC)c(=O)cc21 [colcemid]
effect on cell proliferation of erythroid cultures (CFSE): blocking cell proliferation
